Experimental findings from publication doi:10.1101/2020.02.01.930206 are described below.

Chains of the proteins cited; added tags and fusions are not shown. Lines headed by an entry give the natural chain unless they say otherwise; changes in a name come on top.
UniProt O76071: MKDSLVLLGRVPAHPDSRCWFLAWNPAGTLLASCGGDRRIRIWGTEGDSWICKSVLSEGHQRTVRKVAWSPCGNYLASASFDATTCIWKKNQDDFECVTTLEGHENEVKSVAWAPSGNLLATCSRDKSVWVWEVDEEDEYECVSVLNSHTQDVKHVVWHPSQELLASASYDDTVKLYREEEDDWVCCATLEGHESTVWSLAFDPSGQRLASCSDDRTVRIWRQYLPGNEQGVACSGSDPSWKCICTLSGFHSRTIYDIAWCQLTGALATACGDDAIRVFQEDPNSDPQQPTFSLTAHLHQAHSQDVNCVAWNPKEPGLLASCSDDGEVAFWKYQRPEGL

These are yes or no findings as the source states them, for the method shown. For some assays here: In cells and extracts the contact can be indirect. Some entries that bind do so weakly or less than the wild type. For some assays here: Where a sequence is shown, tags or fusion partners need not be part of it.

Experiment [1] has as its target CIA targeting complex co-expressed in HEK293 cells (Flag-MMS19, myc-CIAO2B, wild-type myc-CIAO1) (human) (UniProt Q96T76+Q9Y3D0+O76071). Nature of the experiment: co-IP.
Experiment [2] addresses CIA targeting complex co-expressed in HEK293 cells with myc-CIAO1 R125E (human) (UniProt Q96T76+Q9Y3D0+O76071). The experiment can be described thus: co-IP.
Experiment [3] deals with human primase (PriL-PriS heterodimer) (human) (UniProt P49643+P49642). The experiment can be described thus: ITC. (Isothermal titration calorimetry measures the heat released or taken up as one component is titrated into another.)

B1: myc-PriL/S (myc-tagged primase co-expressed in HEK293 cells) (complex, UniProt P49643;P49642)
chain 1: MEFSGRKWRKLRLAGDQRNASYPHCLQFYLQPPSENISLIEFENLAIDRVKLLKSVENLGVSYVKGTEQYQSKLESELRKLKFSYRENLEDEYEPRRRDHISHFILRLAYCQSEELRRWFIQQEMDLLRFRFSILPKDKIQDFLKDSQLQFEAISDEEKTLREQEIVASSPSLSGLKLGFESIYKIPFADALDLFRGRKVYLEDGFAYVPLKDIVAIILNEFRAKLSKALALTARSLPAVQSDERLQPLLNHLSHSYTGQDYSTQGNVGKISLDQIDLLSTKSFPPCMRQLHKALRENHHLRHGGRMQYGLFLKGIGLTLEQALQFWKQEFIKGKMDPDKFDKGYSYNIRHSFGKEGKRTDYTPFSCLKIILSNPPSQGDYHGCPFRHSDPELLKQKLQSYKISPGGISQILDLVKGTHYQVACQKYFEMIHNVDDCGFSLNHPNQFFCESQRILNGGKDIKKEPIQPETPQPKPSVQKTKDASSALASLNSSLEMDMEGLEDYFSEDS
chain 2: METFDPTELPELLKLYYRRLFPYSQYYRWLNYGGVIKNYFQHREFSFTLKDDIYIRYQSFNNQSDLEKEMQKMNPYKIDIGAVYSHRPNQHNTVKLGAFQAQEKELVFDIDMTDYDDVRRCCSSADICPKCWTLMTMAIRIIDRALKEDFGFKHRLWVYSGRRGVHCWVCDESVRKLSSAVRSGIVEYLSLVKGGQDVKKKVHLSEKIHPFIRKSINIIKKYFEEYALVNQDILENKESWDKILALVPETIHDELQQSFQKSHNSLQRWEHLKKVASRYQNNIKNDKYGPWLEWEIMLQYCFPRLDINVSKGINHLLKSPFSVHPKTGRISVPIDLQKVDQFDPFTVPTISFICRELDAISTNEEEKEENEAESDVKHRTRDYKKTSLAPYVKVFEHFLENLDKSRKGELLKKSDLQKDF
Regarding B1, the values for the binding entry in experiment [1] and in experiment [2] were “binds” and “no binding”, respectively.

B2: myc-DNA2 (enzyme, UniProt Q6ZQJ5 1-1062)
chain: MEPLDELDLLLLEEDGGAEAVPRVELLRKKADALFPETVLSRGVDNRYLVLAVETSQNERGAEEKRLHVTASQDREHEVLCILRNGWSSVPVEPGDIVHLEGDCTSEPWIIDDDFGYFILYPDMMISGTSVASSIRCLRRAVLSETFRGSDPATRQMLIGTILHEVFQKAISESFAPERLQELALQTLREVRHLKEMYRLNLSQDEILCEVEEYLPSFSKWAEDFMRKGPSSEFPQMQLSLPSDGSNRSSPCNIEVVKSLDIEESIWSPRFGLKGKIDVTVGVKIHRDCKMKYKVMPLELKTGKESNSIEHRSQVVLYTLLSQERREDPEAGWLLYLKTGQMYPVPANHLDKRELLKLRNWLAASLLHRVSRAAPGEEARLSALPQIIEEEKTCKYCSQIGNCALYSRAVEEQGDDASIPEAMLSKIQEETRHLQLAHLKYFSLWCLMLTLESQSKDNRKTHQSIWLTPASELEESGNCVGNLVRTEPVSRVCDGQYLHNFQRKNGPMPATNLMAGDRIILSGEERKLFALSKGYVKKMNKAAVTCLLDRNLSTLPATTVFRLDREERHGDISTPLGNLSKLMESTDPSKRLRELIIDFREPQFIAYLSSVLPHDAKDTVANILKGLNKPQRQAMKRVLLSKDYTLIVGMPGTGKTTTICALVRILSACGFSVLLTSYTHSAVDNILLKLAKFKVGFLRLGQSHKVHPDIQKFTEEEICRSRSIASLAHLEELYNSHPIVATTCMGINHPIFSRKTFDFCIVDEASQISQPVCLGPLFFSRRFVLVGDHQQLPPLVVNREARALGMSESLFKRLERNESAVVQLTVQYRMNRKIMSLSNKLTYAGKLECGSDRVANAVLALPNLKDARLSLQLYADYSDSPWLAGVLEPDNPVCFLNTDKVPAPEQVENGGVSNVTEARLIVFLTSTFIKAGCSPSDIGVIAPYRQQLRIISDLLARSSVGMVEVNTVDKYQGRDKSLILVSFVRSNEDGTLGELLKDWRRLNVALTRAKHKLILLGSVSSLKRFPPLGTLFDHLNAEQLILDLPSREHESLSHILGDCQRD
For B2, the binding result is “binds” in experiment [1] and “no binding” in experiment [2].

B3: human MMS19-CIAO2B sub-complex (complex, UniProt Q96T76;Q9Y3D0)
chain 1: MAAAAAVEAAAPMGALWGLVHDFVVGQQEGPADQVAADVKSGNYTVLQVVEALGSSLENPEPRTRARAIQLLSQVLLHCHTLLLEKEVVHLILFYENRLKDHHLVIPSVLQGLKALSLCVALPPGLAVSVLKAIFQEVHVQSLPQVDRHTVYNIITNFMRTREEELKSLGADFTFGFIQVMDGEKDPRNLLVAFRIVHDLISRDYSLGPFVEELFEVTSCYFPIDFTPPPNDPHGIQREDLILSLRAVLASTPRFAEFLLPLLIEKVDSEVLSAKLDSLQTLNACCAVYGQKELKDFLPSLWASIRREVFQTASERVEAEGLAALHSLTACLSRSVLRADAEDLLDSFLSNILQDCRHHLCEPDMKLVWPSAKLLQAAAGASARACDSVTSNVLPLLLEQFHKHSQSSQRRTILEMLLGFLKLQQKWSYEDKDQRPLNGFKDQLCSLVFMALTDPSTQLQLVGIRTLTVLGAQPDLLSYEDLELAVGHLYRLSFLKEDSQSCRVAALEASGTLAALYPVAFSSHLVPKLAEELRVGESNLTNGDEPTQCSRHLCCLQALSAVSTHPSIVKETLPLLLQHLWQVNRGNMVAQSSDVIAVCQSLRQMAEKCQQDPESCWYFHQTAIPCLLALAVQASMPEKEPSVLRKVLLEDEVLAAMVSVIGTATTHLSPELAAQSVTHIVPLFLDGNVSFLPENSFPSRFQPFQDGSSGQRRLIALLMAFVCSLPRNVEIPQLNQLMRELLELSCCHSCPFSSTAAAKCFAGLLNKHPAGQQLDEFLQLAVDKVEAGLGSGPCRSQAFTLLLWVTKALVLRYHPLSSCLTARLMGLLSDPELGPAAADGFSLLMSDCTDVLTRAGHAEVRIMFRQRFFTDNVPALVQGFHAAPQDVKPNYLKGLSHVLNRLPKPVLLPELPTLLSLLLEALSCPDCVVQLSTLSCLQPLLLEAPQVMSLHVDTLVTKFLNLSSSPSMAVRIAALQCMHALTRLPTPVLLPYKPQVIRALAKPLDDKKRLVRKEAVSARGEWFLLGSPGS
chain 2: MVGGGGVGGGLLENANPLIYQRSGERPVTAGEEDEQVPDSIDAREIFDLIRSINDPEHPLTLEELNVVEQVRVQVSDPESTVAVAFTPTIPHCSMATLIGLSIKVKLLRSLPQRFKMDVHITPGTHASEHAVNKQLADKERVAAALENTHLLEVVNQCLSARS
Take B3: in experiment [3], the binding result is reported as “no binding”.
